Data on two substances can be found in PMC7617797, “The phosphorylated trimeric SOSS1 complex and RNA polymerase II trigger liquid-liquid phase separation at double-strand breaks”.

Protein sequences, listed by entry. Tags and fused reporters are not part of them. Lines headed by an entry give the natural chain unless they say otherwise; changes in a name come on top. Chains listed by the source or under a name are the forms on record and can include a tag or linker.
UniProt Q9BQ15: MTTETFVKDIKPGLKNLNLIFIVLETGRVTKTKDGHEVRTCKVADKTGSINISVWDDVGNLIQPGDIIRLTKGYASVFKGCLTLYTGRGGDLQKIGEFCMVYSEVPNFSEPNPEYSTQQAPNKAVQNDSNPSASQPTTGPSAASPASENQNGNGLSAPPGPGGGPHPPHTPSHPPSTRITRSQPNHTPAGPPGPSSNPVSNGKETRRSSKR
phosphorylated c-Abl (p-c-Abl) (P00519-2, form named): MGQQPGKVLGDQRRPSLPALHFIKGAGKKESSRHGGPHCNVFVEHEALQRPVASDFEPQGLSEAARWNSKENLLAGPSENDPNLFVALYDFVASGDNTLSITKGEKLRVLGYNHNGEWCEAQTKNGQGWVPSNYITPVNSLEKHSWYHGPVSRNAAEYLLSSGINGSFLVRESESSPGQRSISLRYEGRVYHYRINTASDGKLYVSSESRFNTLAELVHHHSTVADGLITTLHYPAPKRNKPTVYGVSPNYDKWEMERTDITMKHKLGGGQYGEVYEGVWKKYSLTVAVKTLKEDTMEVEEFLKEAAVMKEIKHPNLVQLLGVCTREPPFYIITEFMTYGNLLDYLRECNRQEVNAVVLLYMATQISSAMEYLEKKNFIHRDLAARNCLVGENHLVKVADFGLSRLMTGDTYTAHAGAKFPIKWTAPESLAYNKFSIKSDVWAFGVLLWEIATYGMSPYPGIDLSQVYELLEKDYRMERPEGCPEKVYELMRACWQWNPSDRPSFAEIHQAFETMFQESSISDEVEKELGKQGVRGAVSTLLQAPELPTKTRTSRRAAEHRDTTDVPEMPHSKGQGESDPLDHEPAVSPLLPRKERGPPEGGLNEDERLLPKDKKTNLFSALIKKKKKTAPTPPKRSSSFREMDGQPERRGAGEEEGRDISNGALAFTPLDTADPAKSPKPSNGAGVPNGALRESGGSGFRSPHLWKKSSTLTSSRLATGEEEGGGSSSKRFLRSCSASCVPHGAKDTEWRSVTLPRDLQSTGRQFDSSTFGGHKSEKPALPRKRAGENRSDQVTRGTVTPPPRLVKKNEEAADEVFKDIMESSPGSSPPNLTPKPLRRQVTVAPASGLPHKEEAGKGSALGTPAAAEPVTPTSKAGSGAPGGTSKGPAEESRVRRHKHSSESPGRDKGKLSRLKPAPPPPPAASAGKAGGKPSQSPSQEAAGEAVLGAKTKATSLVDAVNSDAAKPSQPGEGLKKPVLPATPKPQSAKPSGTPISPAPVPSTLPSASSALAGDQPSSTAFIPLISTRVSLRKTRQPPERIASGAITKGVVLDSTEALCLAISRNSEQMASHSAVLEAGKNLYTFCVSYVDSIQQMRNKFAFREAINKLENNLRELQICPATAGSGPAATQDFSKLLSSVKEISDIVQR

The experiment addresses human SSB1 (hSSB1) (human (endogenous in HeLa)) (UniProt Q9BQ15). Put plainly: proximity ligation; Duolink in situ PLA with antibodies to the two endogenous proteins in fixed, permeabilised HeLa cells; with or without IR (10 Gy), imatinib (1 μM) or RNase H1 overexpression; single antibodies as negative control.

Results are given in words; binding and its absence hold for the method and conditions named. In cells and extracts the contact can be indirect. Some binding calls cover weakened binding; strength is not graded here.

“Abelson tyrosine kinase (c-Abl) (from UniProt P00519-2 1-1149) (enzyme)”: the binding result was “binds”.

Turning to “phosphorylated c-Abl (p-c-Abl) (from UniProt P00519-2 1-1149) (enzyme)”, the binding entry is “binds”.
